Reference: the supplement of paper PMC10338343
± gives the standard deviation. The list shows a part of the results, in another mix than the full data. Many entries were measured with a wide error.

Tested on: MIWI (PIWIL1) piRISC loaded with L1MC piRNA (30 nt)
Test: pre-steady-state target cleavage rate (min^-1); MIWI and MILI are mouse PIWI proteins and EfPiwi is from a freshwater sponge; tags in brackets are library labels; higher = faster piRNA-guided slicing of the target
Conditions: guide: L1MC piRNA 5'p-UAACUAAAUACUAUGCAAGCUGUAGGUCCU; auxiliary factor: none (no GTSF1)
In short: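 For Cleave-'n-Seq, a transcribed, DNA-blocked target RNA library […] met 1 nM active affinity-purified piRISC with one synthetic guide at 33 °C for 0–8 or 0–960 min in HEPES–potassium acetate buffer, with or without 500 nM GTSF1 partner protein. Uncleaved targets were sequenced and normalised to depth and weakly complementary targets, with three trials pooled and k3 capped at 0.0001 min^-1. A burst-and-steady-state fit supplied the pre-steady-state cleavage rate.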
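Also: 1 nM active piRISC with 0.1 nM target library at 33 °C single turnover.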

| Sequence | pre-steady-state target cleavage rate |
| --- | --- |
| UCGACCUACAGCUUGCAAUGUAUUUUCAAA | 0.000246 ± 0.012 |
| UCGACCUACAGCUUGCAUAGUUAAUAGUAA | 0.00227 ± 0.0037 |
| UCCUGGAUGUCGAACGUAAGAUAUUAGUUA | 0.000103 ± 0.056 |
| UGGACCUACAGCUUGCAUCAGUAUUUAGUUA | 0.000851 ± 0.0056 |
| UCGACCUACAGCAUGCAUAGUAUUUUCAAA | 0.001 ± 0.0074 |
| UCCUGGAACAGCUUGCAUAGUAAAAUCAAA [g9:g23:cont:t1A] | 0.00135 ± 0.0055 |
| UGGUGCUACAGCUUGCAUAGUAUUUUCAAA | 0.00193 ± 0.004 |
| AGGACCUACAGCUUCGUUAGUAUUUUCAAA | 0.000214 ± 0.014 |
| UCGACCUACAGCAUGCAUAGUAUUUAGAAA | 0.00286 ± 0.0033 |
| UCCACCUACAGCUUGCAAUAGUAUUUAGUUA | 0.00113 ± 0.0066 |
| AGGACCUACAGCUUGCAUAGAUUUUACAAA | 0.00125 ± 0.0061 |
| UCGACCUACAGCUUCGUUAGUAUUUAGUUA | 0.000866 ± 0.0034 |
| UGGACCUACAGCUUGCAUAGUAAAAAGUAA | 0.00165 ± 0.0046 |
| UCCUGGAUGUCCUUGCAAAGUAAUUAGUUA | 0.00124 ± 0.0051 |
| UCGACCUACAGCUACGAUAGUAUUUAGAAA | 0.000254 ± 0.01 |
| UCCACCUACAGCUUGCAUUCAAUUUAGAAA | 0.000286 ± 0.01 |
| UCCACCUUCAGCUUGCAUAGUAUUUUCAAA | 0.00179 ± 0.0025 |
| AGGUGCUACAGCUUGCAUAGUAUUUUCAAA | 0.00187 ± 0.0034 |
| UGGACCUACAGCUUCCAUAGUUUUUAGUUA | 0.00169 ± 0.0021 |

| Sequence | pre-steady-state target cleavage rate |
| --- | --- |
| UCGACCUACAGCUUCGUUAGUAUUUUCAAA | 0.000215 ± 0.013 |
| UGGACCUACAGGUUGCAUAGUAUUUUCAAA | 0.00178 ± 0.0022 |
| UCCUGGAUCAGCUUGCAUAGUAAAAUCAAA [g9:g22:cont:t1A] | 0.000358 ± 0.0087 |
| UCGACCUACUCCUUGCAUAGUAUUUUCAAA | 0.00188 ± 0.0026 |
| UGCACCUACAGCUUGCAUAGUAUUUUCAAA | 0.00256 ± 0.0042 |
| UCCACCUAGAGCUUGCAUAGUAUUUUCAAA | 0.00179 ± 0.0031 |
| UCCACCUACAGCUUGCAUAGUAAAAAGAAA | 0.000758 ± 0.01 |
| UCGACCUACAGCUUGCAUACGUAUUUAGUUA | 0.000944 ± 0.009 |
| UGGACCUACAGCUUGCAUAGUAAUUUCAAA | 0.000826 ± 0.0068 |
| UCCACCUACAGCUUGGUAAGUAUUUAGUAA | 0.000627 ± 0.0078 |
| UGGACCUACAGGAUGCAUAGUAUUUUCAAA | 0.000897 ± 0.0036 |
| UCCACCUACAGCUUGCAUUCAAUUUUCAAA | 0.000214 ± 0.013 |
| UCGACCUACAGCUUGCAUAGAAUUUUCAAA | 0.00141 ± 0.0054 |
| UCCACCUACAGCUUGCAUAGUAUUAAGAAA | 0.00164 ± 0.0047 |
| AGGACCUACAGCUUGCAUAGUAUUAUCUAA | 0.00279 ± 0.0035 |
| UCCUGGAUGUCGAUGCAUACUAUUUUGUUA | 0.000368 ± 0.02 |
| UCCUGGAUCAGCUUGCAUUCUAUUUACAAA | 0.000263 ± 0.015 |
| AGGACCUACAGCAAGCAUAGUAUUUAGAAA | 0.00253 ± 0.0047 |
| UCGACCUACAGCUUGGAUAGUAUUUACAAA | 0.0022 ± 0.0027 |

2 consecutive entries out of the list so far:

| Sequence | pre-steady-state target cleavage rate |
| --- | --- |
| UCGACCUACUCCUUGCAUAGUAUUUUCAAA | 0.00188 ± 0.0026 |
| UGCACCUACAGCUUGCAUAGUAUUUUCAAA | 0.00256 ± 0.0042 |
